The other results are listed elsewhere or left out.
Compound: CC1Cc2ccccc2N1C(=O)C1CCCN(C1)C(=O)CCl (mixture of isomers) [TRIM25 ligand 11 (diastereomer mixture)]
Test: probe-labelled cysteine peptide fold change vs DMSO (competition) (log2 fold change); higher = less target engagement (more negative = stronger competition)
Details: THP-1, incubation time: 4 h
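Also: competitive chemoproteomic profiling in live THP-1 cells with an iodoacetamide desthiobiotin (IA-DTB) probe, comparing probe-labelled peptide intensities in compound-treated cells against DMSO-treated controls.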

Amino acid sequences for entries named in this document (tags omitted). A change or cut given only in a name is not applied to a line headed by its entry.
UniProt P49815: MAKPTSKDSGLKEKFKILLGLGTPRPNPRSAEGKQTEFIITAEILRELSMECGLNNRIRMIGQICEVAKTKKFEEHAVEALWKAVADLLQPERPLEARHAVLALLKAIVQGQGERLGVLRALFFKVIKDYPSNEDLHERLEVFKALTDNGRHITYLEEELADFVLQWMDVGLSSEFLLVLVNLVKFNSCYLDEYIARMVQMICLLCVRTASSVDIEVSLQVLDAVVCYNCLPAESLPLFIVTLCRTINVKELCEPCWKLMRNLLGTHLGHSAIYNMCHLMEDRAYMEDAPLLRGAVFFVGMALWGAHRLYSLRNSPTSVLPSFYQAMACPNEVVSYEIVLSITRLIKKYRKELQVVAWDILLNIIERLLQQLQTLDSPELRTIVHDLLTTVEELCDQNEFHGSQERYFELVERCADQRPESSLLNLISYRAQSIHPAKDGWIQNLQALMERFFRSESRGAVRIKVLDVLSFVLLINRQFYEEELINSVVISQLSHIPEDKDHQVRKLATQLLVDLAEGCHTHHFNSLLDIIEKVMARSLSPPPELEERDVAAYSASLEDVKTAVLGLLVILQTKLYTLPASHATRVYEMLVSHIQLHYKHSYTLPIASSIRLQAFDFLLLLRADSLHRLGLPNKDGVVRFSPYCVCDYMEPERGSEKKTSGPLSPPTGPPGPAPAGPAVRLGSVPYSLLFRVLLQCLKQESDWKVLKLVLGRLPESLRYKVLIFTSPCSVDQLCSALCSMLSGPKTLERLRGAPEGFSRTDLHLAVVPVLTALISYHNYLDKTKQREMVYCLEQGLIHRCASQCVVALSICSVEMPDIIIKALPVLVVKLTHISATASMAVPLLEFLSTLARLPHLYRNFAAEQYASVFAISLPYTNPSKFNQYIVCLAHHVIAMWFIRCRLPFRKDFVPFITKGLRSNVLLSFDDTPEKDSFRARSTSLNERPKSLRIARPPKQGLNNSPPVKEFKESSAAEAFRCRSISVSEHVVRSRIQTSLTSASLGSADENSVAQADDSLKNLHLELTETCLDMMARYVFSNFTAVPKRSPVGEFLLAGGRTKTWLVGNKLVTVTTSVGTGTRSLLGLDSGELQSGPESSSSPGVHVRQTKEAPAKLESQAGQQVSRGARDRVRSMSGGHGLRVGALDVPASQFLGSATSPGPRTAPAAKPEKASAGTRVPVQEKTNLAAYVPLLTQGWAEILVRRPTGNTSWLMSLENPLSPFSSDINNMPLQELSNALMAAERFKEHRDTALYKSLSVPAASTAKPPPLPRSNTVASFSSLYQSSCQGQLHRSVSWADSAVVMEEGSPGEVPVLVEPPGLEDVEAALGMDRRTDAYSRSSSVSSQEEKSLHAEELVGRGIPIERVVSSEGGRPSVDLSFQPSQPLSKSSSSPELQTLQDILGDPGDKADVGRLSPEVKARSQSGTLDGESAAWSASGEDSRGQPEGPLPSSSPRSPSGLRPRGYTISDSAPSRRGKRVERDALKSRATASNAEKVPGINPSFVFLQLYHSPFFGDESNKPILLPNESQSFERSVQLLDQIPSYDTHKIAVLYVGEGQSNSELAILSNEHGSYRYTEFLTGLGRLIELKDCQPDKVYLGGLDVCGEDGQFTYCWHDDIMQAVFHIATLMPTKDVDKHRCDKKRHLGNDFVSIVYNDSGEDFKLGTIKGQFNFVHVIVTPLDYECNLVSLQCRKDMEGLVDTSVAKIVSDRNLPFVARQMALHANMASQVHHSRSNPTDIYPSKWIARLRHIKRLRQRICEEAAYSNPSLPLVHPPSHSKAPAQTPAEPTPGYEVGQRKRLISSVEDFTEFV
UniProt Q96FX7: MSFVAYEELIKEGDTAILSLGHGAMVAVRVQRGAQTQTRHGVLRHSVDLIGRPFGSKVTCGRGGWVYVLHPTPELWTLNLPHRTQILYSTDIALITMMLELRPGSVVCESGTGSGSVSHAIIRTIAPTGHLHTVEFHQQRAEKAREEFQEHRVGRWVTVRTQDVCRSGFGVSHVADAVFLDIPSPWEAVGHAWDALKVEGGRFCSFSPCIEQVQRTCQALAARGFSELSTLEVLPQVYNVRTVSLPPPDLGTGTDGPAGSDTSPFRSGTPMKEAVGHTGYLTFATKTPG
UniProt Q9H4B7, whole entry: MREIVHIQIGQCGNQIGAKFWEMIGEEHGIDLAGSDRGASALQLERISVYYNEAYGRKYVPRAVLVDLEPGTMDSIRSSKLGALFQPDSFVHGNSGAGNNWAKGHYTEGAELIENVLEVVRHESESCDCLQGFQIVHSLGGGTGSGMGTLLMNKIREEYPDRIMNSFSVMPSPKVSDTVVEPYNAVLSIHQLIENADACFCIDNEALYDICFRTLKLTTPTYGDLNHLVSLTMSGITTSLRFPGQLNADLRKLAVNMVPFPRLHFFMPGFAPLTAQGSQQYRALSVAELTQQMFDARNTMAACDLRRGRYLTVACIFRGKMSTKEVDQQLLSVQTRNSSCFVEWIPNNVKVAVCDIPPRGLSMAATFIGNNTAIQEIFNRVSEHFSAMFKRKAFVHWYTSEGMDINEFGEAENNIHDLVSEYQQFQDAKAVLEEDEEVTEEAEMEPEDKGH
UniProt Q96AY4: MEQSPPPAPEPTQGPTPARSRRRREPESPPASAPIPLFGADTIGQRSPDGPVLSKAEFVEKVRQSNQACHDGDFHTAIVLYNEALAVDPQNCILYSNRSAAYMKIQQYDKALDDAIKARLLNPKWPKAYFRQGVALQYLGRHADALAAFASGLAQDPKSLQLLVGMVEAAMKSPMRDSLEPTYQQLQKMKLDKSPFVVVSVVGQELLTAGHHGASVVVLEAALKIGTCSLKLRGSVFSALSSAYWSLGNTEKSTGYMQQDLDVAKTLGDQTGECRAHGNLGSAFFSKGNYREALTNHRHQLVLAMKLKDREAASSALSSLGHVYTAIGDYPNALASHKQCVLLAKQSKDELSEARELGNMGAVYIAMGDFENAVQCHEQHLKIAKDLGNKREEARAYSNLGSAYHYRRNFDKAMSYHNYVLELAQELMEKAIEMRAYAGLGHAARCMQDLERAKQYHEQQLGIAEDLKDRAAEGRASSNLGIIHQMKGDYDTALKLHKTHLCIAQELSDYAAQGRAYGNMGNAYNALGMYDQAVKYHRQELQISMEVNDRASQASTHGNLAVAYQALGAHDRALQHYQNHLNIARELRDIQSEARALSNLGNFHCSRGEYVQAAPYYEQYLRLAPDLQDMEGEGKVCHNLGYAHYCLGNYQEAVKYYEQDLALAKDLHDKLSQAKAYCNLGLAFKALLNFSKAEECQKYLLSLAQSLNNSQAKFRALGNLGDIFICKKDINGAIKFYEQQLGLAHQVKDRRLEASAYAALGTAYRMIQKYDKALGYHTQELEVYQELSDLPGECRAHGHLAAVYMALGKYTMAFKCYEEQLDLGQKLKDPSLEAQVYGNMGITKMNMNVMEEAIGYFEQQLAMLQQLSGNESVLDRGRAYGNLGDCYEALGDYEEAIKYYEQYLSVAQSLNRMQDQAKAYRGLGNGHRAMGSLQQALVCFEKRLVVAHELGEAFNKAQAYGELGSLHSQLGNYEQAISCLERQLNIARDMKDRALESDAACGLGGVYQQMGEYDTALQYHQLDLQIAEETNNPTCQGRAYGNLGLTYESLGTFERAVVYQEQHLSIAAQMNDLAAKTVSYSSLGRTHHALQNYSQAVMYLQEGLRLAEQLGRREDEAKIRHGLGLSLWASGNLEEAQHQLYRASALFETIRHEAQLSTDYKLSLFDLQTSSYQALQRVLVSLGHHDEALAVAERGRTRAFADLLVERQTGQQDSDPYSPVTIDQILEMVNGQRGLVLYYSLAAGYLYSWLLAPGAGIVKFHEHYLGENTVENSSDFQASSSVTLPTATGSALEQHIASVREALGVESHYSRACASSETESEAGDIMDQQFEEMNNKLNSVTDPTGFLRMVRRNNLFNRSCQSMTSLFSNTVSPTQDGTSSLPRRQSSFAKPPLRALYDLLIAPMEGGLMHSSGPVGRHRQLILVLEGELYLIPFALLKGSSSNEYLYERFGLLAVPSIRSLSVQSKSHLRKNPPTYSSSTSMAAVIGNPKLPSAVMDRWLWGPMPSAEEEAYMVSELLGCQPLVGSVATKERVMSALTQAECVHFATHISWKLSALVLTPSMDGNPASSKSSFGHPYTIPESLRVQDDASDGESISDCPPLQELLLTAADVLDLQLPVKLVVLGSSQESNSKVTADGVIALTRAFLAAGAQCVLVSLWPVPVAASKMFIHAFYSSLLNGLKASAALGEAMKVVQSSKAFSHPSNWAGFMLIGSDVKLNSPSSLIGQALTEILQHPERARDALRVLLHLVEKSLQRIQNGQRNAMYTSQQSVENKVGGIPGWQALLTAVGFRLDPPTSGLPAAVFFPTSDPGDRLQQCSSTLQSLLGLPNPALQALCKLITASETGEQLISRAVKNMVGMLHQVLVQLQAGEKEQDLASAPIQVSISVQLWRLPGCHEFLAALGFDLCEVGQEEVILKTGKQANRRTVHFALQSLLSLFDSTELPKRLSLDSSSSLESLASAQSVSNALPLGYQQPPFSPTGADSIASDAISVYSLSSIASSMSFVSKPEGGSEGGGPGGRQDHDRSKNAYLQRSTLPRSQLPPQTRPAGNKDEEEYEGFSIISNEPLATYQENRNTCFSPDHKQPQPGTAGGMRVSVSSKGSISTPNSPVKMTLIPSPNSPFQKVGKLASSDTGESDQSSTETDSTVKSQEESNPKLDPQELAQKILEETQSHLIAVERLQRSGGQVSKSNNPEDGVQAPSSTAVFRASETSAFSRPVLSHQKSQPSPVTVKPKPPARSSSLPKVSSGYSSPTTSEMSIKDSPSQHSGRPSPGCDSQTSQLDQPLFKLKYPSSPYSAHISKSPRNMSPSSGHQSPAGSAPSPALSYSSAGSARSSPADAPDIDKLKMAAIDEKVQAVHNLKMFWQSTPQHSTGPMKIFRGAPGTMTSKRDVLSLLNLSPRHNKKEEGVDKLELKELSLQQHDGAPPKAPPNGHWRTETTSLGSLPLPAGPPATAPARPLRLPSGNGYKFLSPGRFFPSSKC
UniProt Q8N0Z6: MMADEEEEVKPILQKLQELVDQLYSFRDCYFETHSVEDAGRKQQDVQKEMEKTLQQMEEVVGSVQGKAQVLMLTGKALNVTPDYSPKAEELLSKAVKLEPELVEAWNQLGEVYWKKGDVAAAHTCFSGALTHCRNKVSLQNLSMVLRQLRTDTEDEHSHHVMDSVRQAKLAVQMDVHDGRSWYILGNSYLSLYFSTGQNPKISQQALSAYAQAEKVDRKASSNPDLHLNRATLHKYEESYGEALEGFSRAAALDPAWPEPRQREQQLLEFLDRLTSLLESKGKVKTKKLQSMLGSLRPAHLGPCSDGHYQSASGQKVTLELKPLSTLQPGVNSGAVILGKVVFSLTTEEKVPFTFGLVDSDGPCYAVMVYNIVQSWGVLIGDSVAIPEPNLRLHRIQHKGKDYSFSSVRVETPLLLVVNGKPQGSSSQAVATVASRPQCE
UniProt Q99614: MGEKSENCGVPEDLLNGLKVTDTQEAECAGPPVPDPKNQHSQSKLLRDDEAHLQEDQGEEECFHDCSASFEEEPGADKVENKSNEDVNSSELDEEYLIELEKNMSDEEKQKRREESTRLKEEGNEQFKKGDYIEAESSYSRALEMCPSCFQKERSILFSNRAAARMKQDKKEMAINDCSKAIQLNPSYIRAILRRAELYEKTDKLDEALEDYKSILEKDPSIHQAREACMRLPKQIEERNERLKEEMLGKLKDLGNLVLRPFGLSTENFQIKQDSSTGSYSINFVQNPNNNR
UniProt Q9BRA2: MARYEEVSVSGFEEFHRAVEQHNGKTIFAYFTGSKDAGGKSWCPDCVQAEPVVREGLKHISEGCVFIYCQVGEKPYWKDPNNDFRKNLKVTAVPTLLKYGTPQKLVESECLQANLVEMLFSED
UniProt P43897: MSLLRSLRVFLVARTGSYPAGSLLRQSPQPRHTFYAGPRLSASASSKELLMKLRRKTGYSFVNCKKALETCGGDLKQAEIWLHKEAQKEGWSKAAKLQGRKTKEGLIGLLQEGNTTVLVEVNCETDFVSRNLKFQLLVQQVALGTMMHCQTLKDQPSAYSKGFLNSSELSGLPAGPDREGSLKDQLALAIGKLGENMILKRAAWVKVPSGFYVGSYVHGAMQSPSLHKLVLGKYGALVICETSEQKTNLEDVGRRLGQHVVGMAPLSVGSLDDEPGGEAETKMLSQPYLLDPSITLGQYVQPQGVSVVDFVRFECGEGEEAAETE
UniProt Q9Y5U2: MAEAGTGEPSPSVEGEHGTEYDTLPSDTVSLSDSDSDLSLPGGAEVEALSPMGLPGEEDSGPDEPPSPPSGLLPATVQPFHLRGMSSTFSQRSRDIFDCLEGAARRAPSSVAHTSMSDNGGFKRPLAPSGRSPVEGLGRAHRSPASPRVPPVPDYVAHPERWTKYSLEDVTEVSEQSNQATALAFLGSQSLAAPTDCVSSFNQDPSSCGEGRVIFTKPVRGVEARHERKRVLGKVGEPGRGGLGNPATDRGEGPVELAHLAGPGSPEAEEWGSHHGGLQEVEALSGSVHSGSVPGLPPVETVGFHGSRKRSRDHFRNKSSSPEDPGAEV

Target	probe-labelled cysteine peptide fold change (10 µM)	probe-labelled cysteine peptide fold change (50 µM)
TXNDC5_Q8NBS9_121+128_VDCTAHSDVCSAQGVR (UniProt Q8NBS9)	-0.00753	-0.27
TRRAP_Q9Y4A5_3085_CYLQLAGVMGK (UniProt Q9Y4A5)	-0.0598	0.194
TTLL12_Q14166_563+572_AFTELFQVACAKPPPLGLCDYPSSR (UniProt Q14166)	0.119	0.161
TST_Q16762_248_KVDLSQPLIATCR (UniProt Q16762)	-0.038	0.0402
TSC2_P49815_791_EMVYCLEQGLIHR (UniProt P49815)	0.209	0.151
TSC2_P49815_1755_ICEEAAYSNPSLPLVHPPSHSK (UniProt P49815)	-0.214	-0.281
TUBB6_Q9BUF5_127+129_KECEHCDCLQGFQLTHSLGGGTGSGMGTLLISK (UniProt Q9BUF5)	-0.128	-0.141
TRMT61A_Q96FX7_209_FCSFSPCIEQVQR (UniProt Q96FX7)	-0.023	-0.323
TUBB1_Q9H4B7_12_MREIVHIQIGQCGNQIGAK (UniProt Q9H4B7)	0.489	0.674
TUT4_Q5TAX3_966_CFDELSPPCSEQHNR (UniProt Q5TAX3)	-0.0327	-0.0253
TTC27_Q6P3X3_503_ETPSLYCLLGDVLGDHSCYDK (UniProt Q6P3X3)	-0.0522	-0.0196
TTC28_Q96AY4_794_ALGYHTQELEVYQELSDLPGECR (UniProt Q96AY4)	0.126	-0.0624
TTC27_Q6P3X3_374_NNPVHTLTEVELLAFTSCLLSQPK (UniProt Q6P3X3)	0.253	0.421
TSN_Q15631_225_ETAAACVEK (UniProt Q15631)	-0.0395	-0.146
TTC39C_Q8N584_463_ALPNCSFPNLQR (UniProt Q8N584)	0.0135	0.131
TRMT44_Q8IYL2_482_EVGFTCGFHVDEDCLR (UniProt Q8IYL2)	0.315	0.0306
TTC4_O95801_110_CADPDLNAVLYTNR (UniProt O95801)	-0.0693	-0.162
TTC5_Q8N0Z6_304_KLQSMLGSLRPAHLGPCSDGHYQSASGQK (UniProt Q8N0Z6)	-0.103	-0.145
TTC1_Q99614_28_VTDTQEAECAGPPVPDPKNQHSQSK (UniProt Q99614)	-0.236	-0.443
TXNDC17_Q9BRA2_69_HISEGCVFIYCQVGEK (UniProt Q9BRA2)	0.072	-0.148
TSPYL1_Q9H0U9_375_NQDLICSFFTWFSDHSLPESDK (UniProt Q9H0U9)	0.789	0.39

Target	probe-labelled cysteine peptide fold change (10 µM)	probe-labelled cysteine peptide fold change (50 µM)
TWF2_Q6IBS0_141_HLSSCAAPAPLTSAER (UniProt Q6IBS0)	0.263	-0.167
TRRAP_Q9Y4A5_949_AIETALDCLK (UniProt Q9Y4A5)	0.0616	0.000649
TSFM_P43897_71_ALETCGGDLK (UniProt P43897)	-0.0386	-0.00599
TSC2_P49815_1687_GQFNFVHVIVTPLDYECNLVSLQCR (UniProt P49815)	-0.0731	-0.000588
TSR1_Q2NL82_329_DPDMAMEICATDAVDDMEEGLK (UniProt Q2NL82)	-0.133	-0.224
TSSC4_Q9Y5U2_99_DIFDCLEGAAR (UniProt Q9Y5U2)	-0.262	-0.272
TRMU_O75648_9_HVVCALSGGVDSAVAALLLR (UniProt O75648)	-0.0365	0.169
TRPM2_O94759_72_ECVYFVESSK (UniProt O94759)	0.0366	0.0436
TTC1_Q99614_149_ALEMCPSCFQK (UniProt Q99614)	0.0538	0.202
TRRAP_Q9Y4A5_420_NIDDESLPSSIQTMSCK (UniProt Q9Y4A5)	0.299	0.0468
TUBA4A_P68366_54_TIGGGDDSFTTFFCETGAGK (UniProt P68366)	-0.0372	-0.0118
TUT4_Q5TAX3_204_CALQNSPR (UniProt Q5TAX3)	-0.309	-0.492
TTI1_O43156_994_LQLAVLQGLGPLCER (UniProt O43156)	0.132	0.1
TROVE2_P10155_305_MTANSVLEPGNSEVSLVCEK (UniProt P10155)	0.162	-0.201
TUBB6_Q9BUF5_127+129_ECEHCDCLQGFQLTHSLGGGTGSGMGTLLISK (UniProt Q9BUF5)	0.0741	0.0272
TUBB6_Q9BUF5_129_ECEHCDCLQGFQLTHSLGGGTGSGMGTLLISK (UniProt Q9BUF5)	0.0297	-0.0597
TSEN34_Q9BSV6_262_FHAHYIAQCWAPEDTIPLQDLVAAGR (UniProt Q9BSV6)	-0.109	0.055
TTC37_Q6PGP7_497_VFCYLGHYYR (UniProt Q6PGP7)	0.00325	0.162
TTC30B_Q8N4P2_619_DSVIQECVQFLEHCELHGR (UniProt Q8N4P2)	0.056	0.655
TSFM_P43897_240_YGALVICETSEQK (UniProt P43897)	0.174	0.363

Nothing new here: entries from further up.
Target	probe-labelled cysteine peptide fold change (10 µM)	probe-labelled cysteine peptide fold change (50 µM)
TSC2_P49815_791_EMVYCLEQGLIHR (UniProt P49815)	0.209	0.151
TSC2_P49815_1755_ICEEAAYSNPSLPLVHPPSHSK (UniProt P49815)	-0.214	-0.281
TUBB6_Q9BUF5_127+129_KECEHCDCLQGFQLTHSLGGGTGSGMGTLLISK (UniProt Q9BUF5)	-0.128	-0.141
TRMT61A_Q96FX7_209_FCSFSPCIEQVQR (UniProt Q96FX7)	-0.023	-0.323
TUBB1_Q9H4B7_12_MREIVHIQIGQCGNQIGAK (UniProt Q9H4B7)	0.489	0.674
TUT4_Q5TAX3_966_CFDELSPPCSEQHNR (UniProt Q5TAX3)	-0.0327	-0.0253
TTC27_Q6P3X3_503_ETPSLYCLLGDVLGDHSCYDK (UniProt Q6P3X3)	-0.0522	-0.0196
TTC28_Q96AY4_794_ALGYHTQELEVYQELSDLPGECR (UniProt Q96AY4)	0.126	-0.0624
TTC27_Q6P3X3_374_NNPVHTLTEVELLAFTSCLLSQPK (UniProt Q6P3X3)	0.253	0.421

Source: the supplement of paper PMC12067093, “Discovery and optimisation of a covalent ligand for TRIM25 and its application to targeted protein ubiquitination” (Chemical Science, 2025)
